Measured values: US20090004166A1, “Carrier For Enternal Administration” (priority 2004, published 2009)

Tested on: Sprague-Dawley rats
Details: oral gavage, 5 mg/kg

SMILES: CN1CC[C@]23c4c5ccc(O)c4O[C@H]2[C@@H](O)C=C[C@H]3[C@H]1C5.O=S(=O)(O)O [morphine sulphate]
- duration of analgesic effect following oral administration: first hour
